{"source": "patent US11141455B2", "about": "“Peptide analogues with branched amino acid probe(s)” (priority 2014, dated 2021)", "biological_target": "T1, recombinant human type 2 Formyl peptide receptor (FPR2) (Homo sapiens, UniProt P25090)", "T1 construct": "expressed in transfected cells", "T1 sequence (P25090 1-351)": "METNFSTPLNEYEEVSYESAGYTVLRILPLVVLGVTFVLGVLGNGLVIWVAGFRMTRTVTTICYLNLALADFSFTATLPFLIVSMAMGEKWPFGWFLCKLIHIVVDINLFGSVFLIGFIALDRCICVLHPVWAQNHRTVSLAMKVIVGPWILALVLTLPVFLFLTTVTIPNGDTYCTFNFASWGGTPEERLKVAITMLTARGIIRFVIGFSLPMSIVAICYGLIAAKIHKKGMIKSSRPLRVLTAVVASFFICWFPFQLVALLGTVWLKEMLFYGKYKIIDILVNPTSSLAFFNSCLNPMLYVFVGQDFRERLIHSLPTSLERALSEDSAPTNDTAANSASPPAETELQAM", "experiment": "Aequorin light emission agonist assay in recombinant FPR2 cells", "assay_type": "cell-based", "conditions": "at the highest tested dose", "protocol": "Recombinant cells co-expressing mitochondrial apoaequirin and recombinant human type 2 Formyl peptide receptor (FPR2) were grown for 18 hours prior to testing in media without antibiotics were detached by gentle flushing with PBS-EDTA (5 mM EDTA), recovered by centrifugation and re-suspended in assay buffer (DHEM/HAM's F12 with HEPES and 0.1% protease free BSA). Cells were then incubated for at least 4 hours at room temperature coelenterazine h (from Molecular Probes) before DR studies were conducted.\n50 μl of cell suspension was injected on 50 μl of the test or control compound (solubilized in PBS/0.5% BSA and finally diluted from a stock solution of 1 mM) at increasing concentrations in 96 wells plates and then incubated 30 min at room temperature. The resulting light emission was recorded using the Hamamatsu functional drug Screening system 6000 (FDSS6000). For standardization of emission of recorded light across plates and between experiments 100 μM digitonin or 20 μM ATP were added to some of the wells.\nThe test compounds were tested in a concentration range from 10^−11 to 10^−5M\nData is presented as mean values.", "note": "Some results were stated once for a whole list of compounds, not compound by compound."}
{"substance": "Ac-AMVSEFLKQAW-NH2 [Control peptide 2, reference compound]", "values": [{"measurement": "maximal agonist activity, % of max response of internal control Trp-Lys-Tyr-Met-Val-Met", "result": "less than 1%"}]}
